The results in this text go back to article PMC4683056.

Protein sequences, listed by entry. Tags and fused reporters are not part of them.
UniProt Q8IZD2: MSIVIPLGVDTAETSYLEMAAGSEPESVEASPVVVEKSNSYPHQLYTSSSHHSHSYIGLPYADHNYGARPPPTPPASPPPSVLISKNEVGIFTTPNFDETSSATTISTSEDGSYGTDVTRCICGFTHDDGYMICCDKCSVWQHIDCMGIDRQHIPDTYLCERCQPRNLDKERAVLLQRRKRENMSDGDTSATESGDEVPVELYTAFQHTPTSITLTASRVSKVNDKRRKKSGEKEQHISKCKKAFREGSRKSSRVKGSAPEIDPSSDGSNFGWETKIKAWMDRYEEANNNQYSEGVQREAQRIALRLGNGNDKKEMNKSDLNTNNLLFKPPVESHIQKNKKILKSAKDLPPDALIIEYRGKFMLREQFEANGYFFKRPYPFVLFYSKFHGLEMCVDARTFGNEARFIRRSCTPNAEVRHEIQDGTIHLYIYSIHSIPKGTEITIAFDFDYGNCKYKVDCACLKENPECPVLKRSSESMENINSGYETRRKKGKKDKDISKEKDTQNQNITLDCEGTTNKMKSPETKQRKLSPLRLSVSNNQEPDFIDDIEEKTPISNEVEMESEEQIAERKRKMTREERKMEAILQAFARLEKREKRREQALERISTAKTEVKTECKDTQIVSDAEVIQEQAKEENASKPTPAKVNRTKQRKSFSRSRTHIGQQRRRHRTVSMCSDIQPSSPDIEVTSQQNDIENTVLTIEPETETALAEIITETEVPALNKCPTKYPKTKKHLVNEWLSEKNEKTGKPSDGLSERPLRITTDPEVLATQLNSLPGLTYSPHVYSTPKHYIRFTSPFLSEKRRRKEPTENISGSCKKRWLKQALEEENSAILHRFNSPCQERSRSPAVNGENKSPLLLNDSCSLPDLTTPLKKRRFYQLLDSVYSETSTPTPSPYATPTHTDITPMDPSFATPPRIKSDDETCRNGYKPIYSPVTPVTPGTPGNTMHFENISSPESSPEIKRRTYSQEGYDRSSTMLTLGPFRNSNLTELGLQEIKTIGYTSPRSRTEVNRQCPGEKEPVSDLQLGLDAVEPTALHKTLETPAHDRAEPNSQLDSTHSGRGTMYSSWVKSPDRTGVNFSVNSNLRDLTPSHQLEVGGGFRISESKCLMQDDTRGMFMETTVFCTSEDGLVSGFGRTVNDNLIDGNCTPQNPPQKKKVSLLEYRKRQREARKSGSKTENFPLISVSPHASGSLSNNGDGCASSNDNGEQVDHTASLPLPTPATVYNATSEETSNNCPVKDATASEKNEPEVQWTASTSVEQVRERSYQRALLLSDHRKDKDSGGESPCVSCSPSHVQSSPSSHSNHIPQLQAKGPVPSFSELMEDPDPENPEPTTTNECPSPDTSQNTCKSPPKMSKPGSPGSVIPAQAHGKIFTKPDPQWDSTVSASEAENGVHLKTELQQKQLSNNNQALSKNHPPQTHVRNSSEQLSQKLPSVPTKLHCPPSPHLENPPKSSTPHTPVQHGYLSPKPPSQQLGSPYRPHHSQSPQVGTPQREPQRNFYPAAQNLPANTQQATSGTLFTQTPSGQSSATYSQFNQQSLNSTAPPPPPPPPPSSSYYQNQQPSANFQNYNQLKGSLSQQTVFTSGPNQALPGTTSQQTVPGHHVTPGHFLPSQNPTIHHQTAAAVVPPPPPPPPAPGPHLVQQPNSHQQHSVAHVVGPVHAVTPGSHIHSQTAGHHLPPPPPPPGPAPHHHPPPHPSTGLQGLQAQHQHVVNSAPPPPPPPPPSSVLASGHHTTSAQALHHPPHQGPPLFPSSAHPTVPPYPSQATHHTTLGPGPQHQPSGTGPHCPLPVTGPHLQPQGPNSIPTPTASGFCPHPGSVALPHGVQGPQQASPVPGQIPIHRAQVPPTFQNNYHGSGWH
UniProt Q93009: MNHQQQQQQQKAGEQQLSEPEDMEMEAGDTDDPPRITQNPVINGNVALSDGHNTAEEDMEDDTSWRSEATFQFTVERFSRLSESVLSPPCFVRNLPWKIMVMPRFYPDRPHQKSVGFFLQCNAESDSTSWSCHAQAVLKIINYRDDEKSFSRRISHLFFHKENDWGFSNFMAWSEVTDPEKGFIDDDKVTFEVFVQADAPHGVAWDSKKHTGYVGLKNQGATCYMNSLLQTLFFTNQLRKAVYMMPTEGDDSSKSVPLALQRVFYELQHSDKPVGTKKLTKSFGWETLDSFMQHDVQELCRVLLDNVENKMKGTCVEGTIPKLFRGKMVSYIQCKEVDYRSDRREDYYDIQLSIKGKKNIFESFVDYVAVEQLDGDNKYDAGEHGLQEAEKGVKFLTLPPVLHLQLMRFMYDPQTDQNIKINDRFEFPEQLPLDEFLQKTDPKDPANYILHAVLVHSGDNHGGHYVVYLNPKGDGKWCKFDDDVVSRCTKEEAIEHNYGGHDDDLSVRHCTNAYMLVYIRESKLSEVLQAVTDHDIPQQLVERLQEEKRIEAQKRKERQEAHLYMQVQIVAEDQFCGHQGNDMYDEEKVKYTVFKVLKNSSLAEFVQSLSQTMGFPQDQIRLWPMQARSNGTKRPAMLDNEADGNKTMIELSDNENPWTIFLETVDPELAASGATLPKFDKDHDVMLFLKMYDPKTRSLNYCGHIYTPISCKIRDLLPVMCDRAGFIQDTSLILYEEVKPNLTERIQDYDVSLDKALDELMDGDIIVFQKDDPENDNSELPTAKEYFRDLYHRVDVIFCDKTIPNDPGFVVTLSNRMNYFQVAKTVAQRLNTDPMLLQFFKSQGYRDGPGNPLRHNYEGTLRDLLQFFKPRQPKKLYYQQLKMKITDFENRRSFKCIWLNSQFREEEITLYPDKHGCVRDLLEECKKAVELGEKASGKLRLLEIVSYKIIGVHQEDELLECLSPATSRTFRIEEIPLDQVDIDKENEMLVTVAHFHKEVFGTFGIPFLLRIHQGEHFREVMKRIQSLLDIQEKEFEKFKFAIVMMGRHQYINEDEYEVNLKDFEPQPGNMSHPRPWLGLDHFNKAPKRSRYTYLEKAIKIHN

The assay deals with 3×FLAG-tagged MLL5 (UniProt Q8IZD2). Put plainly: affinity purification with mass spectrometry; HEK293T transfected with pCDEF3-MLL5-3×FLAG or pCDEF3; M2 FLAG affinity gel 4°C 12 h, elution with 3×FLAG peptide, HPLC-MS/MS.

No constants are given. Whether binding was seen depends on the method and setting. In cells and extracts the contact can be indirect. Here binding means that the protein was enriched with, or labelled near, the bait; the list need not be complete.

“USP7 (found by mass spectrometry with 3×FLAG-MLL5) (from UniProt Q93009 1-1102) (enzyme)”: the binding result is reported as “binds”.
